According to publication PMC11530851:
These are yes or no findings as the source states them, for the method shown. Some entries that bind do so weakly or less than the wild type.

Target: SKIV2L of the human SKI (hSKI) complex, N-terminus MBP-tagged (human) (UniProt Q15477)
Assay: co-purification (amylose affinity, Ni-NTA affinity, then size exclusion chromatography); three proteins co-expressed in Sf9; soluble extract on amylose resin (MBP-SKIV2L), maltose eluate on Ni-NTA (His-Flag-TTC37), tags cleaved with PreScission protease, Superose 6 Increase 10/300 GL; 50 mM Hepes-KOH pH 7.6, 150-250 mM NaCl washes; Coomassie SDS-PAGE

binding: binds
Substance: TTC37 of the human SKI (hSKI) complex, N-terminus His-Flag tagged (from UniProt Q6PGP7 1-1564)
